Source: patent publication US6989362B1, “Methods of treating dopamine dysregulation using agents that regulate phosphorylation/dephosphorylation in dopamine signaling” (The Rockefeller University, priority 1999, dated 2006)
At least one compound was matched to its structure with a doubt left.

Tests used:
striatum = assay: DARPP-32 and PKA substrate phosphorylation in striatum after chronic cocaine; type: in vivo, rat
striatal neurons = assay: AMPA/kainate-activated current in striatal neurons from chronic cocaine-treated rats; type: in vivo, rat; settings: 100 μM kainate

`COC(=O)[C@H]1[C@@H](OC(=O)c2ccccc2)C[C@@H]2CC[C@H]1N2C` [cocaine] was tested, and the “levels of phospho-Thr75 DARPP-32 in caudatoputamen and nucleus accumbens” value (striatum; rats, chronic administration) was “increased”, the “total levels of DARPP-32” value (striatum; rats, chronic administration) was “unaffected” and the “D1 agonist (SKF 81297) effects on PKA-dependent phosphorylation of DARPP-32, ARPP-16 and ARPP-21” value (striatum; striatal slices from rats exposed to chronic cocaine) was “abolished”. For the same compound, the “PKA-dependent phosphorylation of DARPP-32 (Thr34) and GluR1 (Ser845)” value (striatum; striatal tissue from chronically treated rats) was “Decreased” and the “peak amplitudes of AMPA-evoked currents” value (striatal neurons) was “reduced”.
